Measured values from publication PMC12040169 (PLOS Biology, 2025).
This is one part of the list.

Each molecule was assayed on T1, CTL2-GFP (C. trachomatis L2/434/Bu, GFP-expressing). Conditions: bulk GFP, single well; 28.5 h, 10 µM; inhibitor.
T1 construct: L2/434/Bu, GFP-expressing
Set-up: species or system HeLa; Intracellular C. trachomatis growth in HeLa cells, bulk GFP fluorescence relative to DMSO
`CCOc1ccc(S(=O)(=O)N2CCN(Cc3cccc(F)c3C)CC2)c2cccnc12` [CBK062794] was tested, and the “% of control remaining” value was 129.788%.
For `CC(Oc1ccc(Cl)cc1Cl)C(=O)O/N=C(\N)c1ccccn1` (centres unmarked) [CBK264673], the “% of control remaining” value was 123.176%.
With `Cc1cc(C)nc(N2CCC(CC(=O)N3CCN(C4CCCC4)CC3)CC2)n1` [CBK285957] the “% of control remaining” value was 125.177%.
For `CCCN1CCN(Cc2cccc3c2ccn3S(=O)(=O)c2cccs2)CC1` [CBK116196T], the “% of control remaining” value was 141.762%.
`Cn1c(=O)[nH]c(=O)c2c1nc(NC1CCCCC1)n2CCCc1ccccc1` [CBK269500] was tested, and the “% of control remaining” value was 151.44%.
With `Cn1nccc1CN1CCCC(COc2ccccc2F)C1` (centres unmarked) [CBK281663] the “% of control remaining” value was 114.051%.
With `COc1ccc(Cl)cc1NC(=O)CN(c1cccc(C(C)=O)c1)S(C)(=O)=O` [CBK267835] the “% of control remaining” value was 87.9053%.
`Cc1ccc(NC(=O)c2cnc3sccn3c2=O)cc1` [CBK287448] was tested, and the “% of control remaining” value was 144.318%.
In the case of `O=C(Nc1ccon1)c1nn(-c2ncccn2)c2ccccc12` [CBK048513], the “% of control remaining” value is reported as 181.271%.
In the case of `COc1ccc(Cn2c(=O)n(S(=O)(=O)c3ccc(C)cc3)c3ccccc32)cc1` [CBK106550], the “% of control remaining” value is reported as 106.191%.
`C[C@H](NC(=O)Cn1cc(-c2ccc(CN3CCCC3)cc2)nn1)c1ccc(Br)cc1` [CBK167692] was tested, and the “% of control remaining” value was 94.4685%.
For `COc1ccc(OCCCN)c(C(=O)N2CCc3nc[nH]c(=O)c3C2)c1` [CBK307361], the “% of control remaining” value was 127.483%.
With `Cc1ccc(S(=O)(=O)CC(=O)N2CCCC3(CCN(C(=O)Cc4c[nH]c5ccccc45)C3)C2)cc1` (centres unmarked) [CBK131595] the “% of control remaining” value was 112.811%.
With `COc1ccc(C2(NC(=O)Cn3ccnc3)CCCCC2)cc1` [CBK283661] the “% of control remaining” value was 129.374%.
In the case of `O=C(Nc1cccc2nsnc12)c1cc(Cl)ccc1NS(=O)(=O)c1cccc2nsnc12` [CBK261129], the “% of control remaining” value is reported as 100%.
For `CC(=O)Nc1nnc(-c2ccc3c(c2)CCCC3)o1` [CBK287426], the “% of control remaining” value was 150.502%.
With `CC(C)CN1CCOC(CNC(=O)c2cc(O)nc3ccccc23)C1` (centres unmarked) [CBK297931] the “% of control remaining” value was 146.281%.
For `O=c1c2cccnc2nc(SCCO)n1CC1CCCO1` (centres unmarked) [CBK306113], the “% of control remaining” value was 94.2895%.
For `Nc1ncc(-c2ccncc2)nc1NCCCN1CCOCC1` [CBK063631], the “% of control remaining” value was 141.677%.
In the case of `CC1CCc2noc(C3CCCN(C(=O)c4ccco4)C3)c2C1` (centres unmarked) [CBK282865], the “% of control remaining” value is reported as 100.687%.
With `CCN1CCOC(CNc2ncnc3c2CCC3)C1` (centres unmarked) [CBK304811] the “% of control remaining” value was 100.005%.
For `Cc1cc(NC(=O)c2cc3ccccc3o2)nc2c1c(=O)oc1ccccc12` [CBK291256], the “% of control remaining” value was 135.471%.
For `O=C(CC1SC(NC2CCCCC2)=NC1=O)Nc1cc(Cl)ccc1Cl` (centres unmarked) [CBK059501], the “% of control remaining” value was 115.03%.
With `CCOC(=O)C1CCN(S(=O)(=O)c2ccccc2C#N)CC1` [CBK051111] the “% of control remaining” value was 130.376%.
For `CN1CCN(CCCNC(=O)N2CCN(Cc3ccccc3)CC2)CC1` [CBK155621], the “% of control remaining” value was 100%.
In the case of `c1cnc2[nH]c(C3CCNCC3)c(CN3CCCCCC3)c2c1` [CBK285057], the “% of control remaining” value is reported as 135.633%.
In the case of `CC1CN(Cc2cccc(CNc3nccnc3C#N)c2)CCO1` (centres unmarked) [CBK304736], the “% of control remaining” value is reported as 130.069%.
`Cn1cccc1C(=O)N[C@H]1C[C@@H]2C(=O)N[C@H]3CCN(C(=O)C4CCCC4)[C@@H]3C(=O)N2C1` [CBK289272] was tested, and the “% of control remaining” value was 109.271%.
`Cc1csc(C(Cc2ccsc2)NC(=O)CCc2ccno2)n1` (centres unmarked) [CBK285099] was tested, and the “% of control remaining” value was 86.7305%.
For `O=C(Nc1ccc(C(F)(F)F)cc1)N1CCC(n2c(=O)[nH]c3ccccc32)CC1` [CBK149847], the “% of control remaining” value was 89.9148%.
`Cn1c(=O)n(C)c2cc(-c3nc4ccccc4c(=O)[nH]3)ccc21` [CBK287887] was tested, and the “% of control remaining” value was 122.65%.
For `CC(=O)N1CCC2(CCCC[C@H]3CN(CC(=O)N(C)C)CC[C@@H]3NC(=O)CNC2=O)CC1` [CBK292163], the “% of control remaining” value was 94.4343%.
`COC(C)CN(C)C(=O)c1nnn(-c2ccc3ncccc3c2)c1C` (centres unmarked) [CBK304484] was tested, and the “% of control remaining” value was 113.368%.
With `Cc1nc(C(F)(F)F)ccc1COC(=O)N1CCOCC1` [CBK200122] the “% of control remaining” value was 104.518%.
For `OCCOc1cccc2cccnc12` [CBK001784], the “% of control remaining” value was 116.473%.
`O=C(NC1CCS(=O)(=O)C1)c1cnc2c(OC(F)(F)F)cccc2c1O` (centres unmarked) [CBK304323] was tested, and the “% of control remaining” value was 127.138%.
With `CCOC(=O)N1CCC(NC(=O)N(Cc2cccnc2)Cc2ccc3c(c2)OCO3)CC1` [CBK158897] the “% of control remaining” value was 92.5283%.
`CN1CCc2c1nc1ccccc1c2NC(=O)CN1CCCCCC1` [CBK278298G] was tested, and the “% of control remaining” value was 79.2595%.
With `OCc1ccc(-c2nccnc2NCc2cccs2)cc1` [CBK088689] the “% of control remaining” value was 134.754%.
`O=C(CN1CCN(C(c2ccccc2)c2ccccc2)CC1)CN1C(=O)c2ccccc2C1=O` [CBK261682] was tested, and the “% of control remaining” value was 99.418%.
With `CC1(C)CC2CC(C)(CN2Cc2c(O)ccc3cc(-c4nc(-c5ccc(Br)cc5)cs4)c(=O)oc23)C1` (centres unmarked) [CBK263831] the “% of control remaining” value was 100%.
`COc1ccc(-c2ncc(Oc3cccc(NC(C)=O)c3)nc2N)c(OC)c1` [CBK145087] was tested, and the “% of control remaining” value was 95.3995%.
`CN(C)C(=O)C(C)(C)Oc1cc(C(F)(F)F)n(C)n1` [CBK056980] was tested, and the “% of control remaining” value was 152.843%.
In the case of `CC(C)NC(=O)CN1CCN(Cc2nc(-c3cccc(Cl)c3)no2)CC1` [CBK304369], the “% of control remaining” value is reported as 139.171%.
In the case of `Cc1ccc(C)c(NC(=O)CCc2c(C)[nH]c3ncnn3c2=O)c1` [CBK304646], the “% of control remaining” value is reported as 118.75%.
`O=S(=O)(c1ccccc1)n1ccc2c(Br)cccc21` [CBK002084] was tested, and the “% of control remaining” value was 80.7068%.
For `O=C(Nc1cccnc1N1CCNCC1)c1cccnc1` [CBK029426T], the “% of control remaining” value was 103.688%.
With `O=[N+]([O-])c1ccccc1N/C(=N/S(=O)(=O)c1ccccc1)c1ccccc1` [CBK262336] the “% of control remaining” value was 105.634%.
For `Brc1ccc(-c2nc(CSc3nnnn3C3CCCCC3)no2)cc1` [CBK026913], the “% of control remaining” value was 92.4793%.
With `COC[C@H]1CCCN1C(=O)CC[C@H]1CNC(=O)[C@@H]2[C@@H](CCN2C2CCCCC2)N1C` [CBK289039] the “% of control remaining” value was 138.079%.
